Measurements reported in the supplement of paper PMC10382679.
Single values of this set are uncertain.

B1: Rpb7; numbered along this chain (parent)
chain: MFFIKDLSLNITLHPSFFGPRMKQYLKTKLLEEVEGSCTGKFGYILCVLDYDNIDIQRGRILPTDGSAEFNVKYRAVVFKPFKGEVVDGTVVSCSQHGFEVQVGPMKVFVTKHLMPQDLTFNAGSNPPSYQSSEDVITIKSRIRVKIEGCISQVSSIHAIGSIKEDYLGAI

Legend:
[1] = variants of: B1; assay: log2 fold change of mutant abundance, UV-irradiated vs unirradiated; higher = more UV resistant (enriched after UV); details: with Saccharomyces cerevisiae rad7Δ rad26Δ; UV dose (J/m2): 10; genetic background: rad7Δ rad26Δ rpb7Δ + plasmid RPB7 library; outgrowth: 10 cell divisions
[2] = variants of: B1; assay: NOISeq theta enrichment statistic, UV-irradiated vs unirradiated (dimensionless); higher = more UV resistant (enriched after UV); details: with Saccharomyces cerevisiae rad7Δ rad26Δ; UV dose (J/m2): 10; genetic background: rad7Δ rad26Δ rpb7Δ + plasmid RPB7 library; outgrowth: 10 cell divisions

Variant | log2 fold change of mutant abundance [1] | NOISeq theta enrichment statistic [2]
MFFIKDLSLNITLHPSFFGPRMKQYLKTKLLEEVEGSCTGKFGHILCVLDYDNIDIQRGRILPTDGSAEFNVKYRAVVFKPFKGEVVDGTVVSCSQHGFEVQVGPMKVFVTKHLMPQDLTFNAGSNPPSYQSSEDVITIKSRIRVKIEGCISQVSSIHAIGSIKEDYLGAI | 0.424 | 0.939
MFFIKDLSLNITLHPSFFGPRMKQYLKTKLLEEVEGSCTGKFGIILCVLDYDNIDIQRGRILPTDGSAEFNVKYRAVVFKPFKGEVVDGTVVSCSQHGFEVQVGPMKVFVTKHLMPQDLTFNAGSNPPSYQSSEDVITIKSRIRVKIEGCISQVSSIHAIGSIKEDYLGAI | -0.0362 | -0.0371
MFFIKDLSLNITLHPSFFGPRMKQYLKTKLLEEVEGSCTGKFGKILCVLDYDNIDIQRGRILPTDGSAEFNVKYRAVVFKPFKGEVVDGTVVSCSQHGFEVQVGPMKVFVTKHLMPQDLTFNAGSNPPSYQSSEDVITIKSRIRVKIEGCISQVSSIHAIGSIKEDYLGAI | -0.879 | -0.412
MFFIKDLSLNITLHPSFFGPRMKQYLKTKLLEEVEGSCTGKFGLILCVLDYDNIDIQRGRILPTDGSAEFNVKYRAVVFKPFKGEVVDGTVVSCSQHGFEVQVGPMKVFVTKHLMPQDLTFNAGSNPPSYQSSEDVITIKSRIRVKIEGCISQVSSIHAIGSIKEDYLGAI | -0.148 | -0.122
MFFIKDLSLNITLHPSFFGPRMKQYLKTKLLEEVEGSCTGKFGNILCVLDYDNIDIQRGRILPTDGSAEFNVKYRAVVFKPFKGEVVDGTVVSCSQHGFEVQVGPMKVFVTKHLMPQDLTFNAGSNPPSYQSSEDVITIKSRIRVKIEGCISQVSSIHAIGSIKEDYLGAI | 0.174 | 0.346
MFFIKDLSLNITLHPSFFGPRMKQYLKTKLLEEVEGSCTGKFGRILCVLDYDNIDIQRGRILPTDGSAEFNVKYRAVVFKPFKGEVVDGTVVSCSQHGFEVQVGPMKVFVTKHLMPQDLTFNAGSNPPSYQSSEDVITIKSRIRVKIEGCISQVSSIHAIGSIKEDYLGAI | -0.942 | -0.362
MFFIKDLSLNITLHPSFFGPRMKQYLKTKLLEEVEGSCTGKFGSILCVLDYDNIDIQRGRILPTDGSAEFNVKYRAVVFKPFKGEVVDGTVVSCSQHGFEVQVGPMKVFVTKHLMPQDLTFNAGSNPPSYQSSEDVITIKSRIRVKIEGCISQVSSIHAIGSIKEDYLGAI | 0.236 | 0.266
MFFIKDLSLNITLHPSFFGPRMKQYLKTKLLEEVEGSCTGKFGVILCVLDYDNIDIQRGRILPTDGSAEFNVKYRAVVFKPFKGEVVDGTVVSCSQHGFEVQVGPMKVFVTKHLMPQDLTFNAGSNPPSYQSSEDVITIKSRIRVKIEGCISQVSSIHAIGSIKEDYLGAI | -0.243 | -0.112
MFFIKDLSLNITLHPSFFGPRMKQYLKTKLLEEVEGSCTGKFGYCLCVLDYDNIDIQRGRILPTDGSAEFNVKYRAVVFKPFKGEVVDGTVVSCSQHGFEVQVGPMKVFVTKHLMPQDLTFNAGSNPPSYQSSEDVITIKSRIRVKIEGCISQVSSIHAIGSIKEDYLGAI | -0.608 | -0.322
MFFIKDLSLNITLHPSFFGPRMKQYLKTKLLEEVEGSCTGKFGYFLCVLDYDNIDIQRGRILPTDGSAEFNVKYRAVVFKPFKGEVVDGTVVSCSQHGFEVQVGPMKVFVTKHLMPQDLTFNAGSNPPSYQSSEDVITIKSRIRVKIEGCISQVSSIHAIGSIKEDYLGAI | -0.122 | -0.279
MFFIKDLSLNITLHPSFFGPRMKQYLKTKLLEEVEGSCTGKFGYLLCVLDYDNIDIQRGRILPTDGSAEFNVKYRAVVFKPFKGEVVDGTVVSCSQHGFEVQVGPMKVFVTKHLMPQDLTFNAGSNPPSYQSSEDVITIKSRIRVKIEGCISQVSSIHAIGSIKEDYLGAI | -0.0164 | -0.0243
MFFIKDLSLNITLHPSFFGPRMKQYLKTKLLEEVEGSCTGKFGYMLCVLDYDNIDIQRGRILPTDGSAEFNVKYRAVVFKPFKGEVVDGTVVSCSQHGFEVQVGPMKVFVTKHLMPQDLTFNAGSNPPSYQSSEDVITIKSRIRVKIEGCISQVSSIHAIGSIKEDYLGAI | 0.232 | 0.292
MFFIKDLSLNITLHPSFFGPRMKQYLKTKLLEEVEGSCTGKFGYNLCVLDYDNIDIQRGRILPTDGSAEFNVKYRAVVFKPFKGEVVDGTVVSCSQHGFEVQVGPMKVFVTKHLMPQDLTFNAGSNPPSYQSSEDVITIKSRIRVKIEGCISQVSSIHAIGSIKEDYLGAI | -0.084 | -0.118
MFFIKDLSLNITLHPSFFGPRMKQYLKTKLLEEVEGSCTGKFGYSLCVLDYDNIDIQRGRILPTDGSAEFNVKYRAVVFKPFKGEVVDGTVVSCSQHGFEVQVGPMKVFVTKHLMPQDLTFNAGSNPPSYQSSEDVITIKSRIRVKIEGCISQVSSIHAIGSIKEDYLGAI | -0.0723 | -0.0762
MFFIKDLSLNITLHPSFFGPRMKQYLKTKLLEEVEGSCTGKFGYTLCVLDYDNIDIQRGRILPTDGSAEFNVKYRAVVFKPFKGEVVDGTVVSCSQHGFEVQVGPMKVFVTKHLMPQDLTFNAGSNPPSYQSSEDVITIKSRIRVKIEGCISQVSSIHAIGSIKEDYLGAI | 0.0564 | 0.133
MFFIKDLSLNITLHPSFFGPRMKQYLKTKLLEEVEGSCTGKFGYVLCVLDYDNIDIQRGRILPTDGSAEFNVKYRAVVFKPFKGEVVDGTVVSCSQHGFEVQVGPMKVFVTKHLMPQDLTFNAGSNPPSYQSSEDVITIKSRIRVKIEGCISQVSSIHAIGSIKEDYLGAI | -0.176 | -0.559
MFFIKDLSLNITLHPSFFGPRMKQYLKTKLLEEVEGSCTGKFGYYLCVLDYDNIDIQRGRILPTDGSAEFNVKYRAVVFKPFKGEVVDGTVVSCSQHGFEVQVGPMKVFVTKHLMPQDLTFNAGSNPPSYQSSEDVITIKSRIRVKIEGCISQVSSIHAIGSIKEDYLGAI | -0.375 | -0.177

For convenience, part of the list above:
Variant | log2 fold change of mutant abundance [1] | NOISeq theta enrichment statistic [2]
MFFIKDLSLNITLHPSFFGPRMKQYLKTKLLEEVEGSCTGKFGSILCVLDYDNIDIQRGRILPTDGSAEFNVKYRAVVFKPFKGEVVDGTVVSCSQHGFEVQVGPMKVFVTKHLMPQDLTFNAGSNPPSYQSSEDVITIKSRIRVKIEGCISQVSSIHAIGSIKEDYLGAI | 0.236 | 0.266
MFFIKDLSLNITLHPSFFGPRMKQYLKTKLLEEVEGSCTGKFGVILCVLDYDNIDIQRGRILPTDGSAEFNVKYRAVVFKPFKGEVVDGTVVSCSQHGFEVQVGPMKVFVTKHLMPQDLTFNAGSNPPSYQSSEDVITIKSRIRVKIEGCISQVSSIHAIGSIKEDYLGAI | -0.243 | -0.112
MFFIKDLSLNITLHPSFFGPRMKQYLKTKLLEEVEGSCTGKFGYCLCVLDYDNIDIQRGRILPTDGSAEFNVKYRAVVFKPFKGEVVDGTVVSCSQHGFEVQVGPMKVFVTKHLMPQDLTFNAGSNPPSYQSSEDVITIKSRIRVKIEGCISQVSSIHAIGSIKEDYLGAI | -0.608 | -0.322
MFFIKDLSLNITLHPSFFGPRMKQYLKTKLLEEVEGSCTGKFGYFLCVLDYDNIDIQRGRILPTDGSAEFNVKYRAVVFKPFKGEVVDGTVVSCSQHGFEVQVGPMKVFVTKHLMPQDLTFNAGSNPPSYQSSEDVITIKSRIRVKIEGCISQVSSIHAIGSIKEDYLGAI | -0.122 | -0.279
MFFIKDLSLNITLHPSFFGPRMKQYLKTKLLEEVEGSCTGKFGYLLCVLDYDNIDIQRGRILPTDGSAEFNVKYRAVVFKPFKGEVVDGTVVSCSQHGFEVQVGPMKVFVTKHLMPQDLTFNAGSNPPSYQSSEDVITIKSRIRVKIEGCISQVSSIHAIGSIKEDYLGAI | -0.0164 | -0.0243
